Assay results reported in paper doi:10.1101/2022.10.04.510822 (bioRxiv, 2022).
These are yes or no findings as the source states them, for the method shown. Binding seen in cells or lysates may run through a third protein. Some entries that bind do so weakly or less than the wild type.

Sequences of proteins named here, by UniProt entry; tags and fusion partners are left off.
UniProt O95166: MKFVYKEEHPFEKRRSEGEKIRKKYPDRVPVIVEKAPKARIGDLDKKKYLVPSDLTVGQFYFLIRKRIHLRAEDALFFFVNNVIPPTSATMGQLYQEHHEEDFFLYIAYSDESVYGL
UniProt Q04206: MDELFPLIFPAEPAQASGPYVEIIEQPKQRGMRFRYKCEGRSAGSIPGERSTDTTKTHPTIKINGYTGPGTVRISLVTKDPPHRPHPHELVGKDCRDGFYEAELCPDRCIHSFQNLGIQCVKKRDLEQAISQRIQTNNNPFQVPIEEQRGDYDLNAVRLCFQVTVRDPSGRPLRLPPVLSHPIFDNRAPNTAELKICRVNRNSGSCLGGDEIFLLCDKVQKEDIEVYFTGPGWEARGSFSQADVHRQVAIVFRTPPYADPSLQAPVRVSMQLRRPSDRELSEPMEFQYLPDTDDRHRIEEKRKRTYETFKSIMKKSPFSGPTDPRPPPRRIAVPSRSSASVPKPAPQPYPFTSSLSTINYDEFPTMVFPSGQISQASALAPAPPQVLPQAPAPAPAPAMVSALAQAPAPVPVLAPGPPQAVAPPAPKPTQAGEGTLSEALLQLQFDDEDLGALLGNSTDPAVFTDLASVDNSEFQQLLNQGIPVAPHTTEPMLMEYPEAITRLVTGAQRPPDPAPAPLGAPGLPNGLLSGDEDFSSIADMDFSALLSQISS

Key:
Assay in all cases: co-IP
[1] = target: Flag-GABARAP (HEK293T) (human) (UniProt O95166)
[2] = target: Flag-p65 (HEK293T) (UniProt Q04206)
[3] = target: GABARAP, endogenous in HEK293T (human (endogenous in HEK293T)) (UniProt O95166)
[4] = target: HA-GABARAP (HEK293T) (human) (UniProt O95166)
[5] = target: p65, endogenous in HEK293T (human (endogenous in HEK293T)) (UniProt Q04206)

Measured: binding

B1: WSTF, endogenous in HEK293T (protein, UniProt Q9UIG0 1-1483)
chain: MAPLLGRKPFPLVKPLPGEEPLFTIPHTQEAFRTREEYEARLERYSERIWTCKSTGSSQLTHKEAWEEEQEVAELLKEEFPAWYEKLVLEMVHHNTASLEKLVDTAWLEIMTKYAVGEECDFEVGKEKMLKVKIVKIHPLEKVDEEATEKKSDGACDSPSSDKENSSQIAQDHQKKETVVKEDEGRRESINDRARRSPRKLPTSLKKGERKWAPPKFLPHKYDVKLQNEDKIISNVPADSLIRTERPPNKEIVRYFIRHNALRAGTGENAPWVVEDELVKKYSLPSKFSDFLLDPYKYMTLNPSTKRKNTGSPDRKPSKKSKTDNSSLSSPLNPKLWCHVHLKKSLSGSPLKVKNSKNSKSPEEHLEEMMKMMSPNKLHTNFHIPKKGPPAKKPGKHSDKPLKAKGRSKGILNGQKSTGNSKSPKKGLKTPKTKMKQMTLLDMAKGTQKMTRAPRNSGGTPRTSSKPHKHLPPAALHLIAYYKENKDREDKRSALSCVISKTARLLSSEDRARLPEELRSLVQKRYELLEHKKRWASMSEEQRKEYLKKKREELKKKLKEKAKERREKEMLERLEKQKRYEDQELTGKNLPAFRLVDTPEGLPNTLFGDVAMVVEFLSCYSGLLLPDAQYPITAVSLMEALSADKGGFLYLNRVLVILLQTLLQDEIAEDYGELGMKLSEIPLTLHSVSELVRLCLRRSDVQEESEGSDTDDNKDSAAFEDNEVQDEFLEKLETSEFFELTSEEKLQILTALCHRILMTYSVQDHMETRQQMSAELWKERLAVLKEENDKKRAEKQKRKEMEAKNKENGKVENGLGKTDRKKEIVKFEPQVDTEAEDMISAVKSRRLLAIQAKKEREIQEREMKVKLERQAEEERIRKHKAAAEKAFQEGIAKAKLVMRRTPIGTDRNHNRYWLFSDEVPGLFIEKGWVHDSIDYRFNHHCKDHTVSGDEDYCPRSKKANLGKNASMNTQHGTATEVAVETTTPKQGQNLWFLCDSQKELDELLNCLHPQGIRESQLKERLEKRYQDIIHSIHLARKPNLGLKSCDGNQELLNFLRSDLIEVATRLQKGGLGYVEETSEFEARVISLEKLKDFGECVIALQASVIKKFLQGFMAPKQKRRKLQSEDSAKTEEVDEEKKMVEEAKVASALEKWKTAIREAQTFSRMHVLLGMLDACIKWDMSAENARCKVCRKKGEDDKLILCDECNKAFHLFCLRPALYEVPDGEWQCPACQPATARRNSRGRNYTEESASEDSEDDESDEEEEEEEEEEEEEDYEVAGLRLRPRKTIRGKHSVIPPAARSGRRPGKKPHSTRRSQPKAPPVDDAEVDELVLQTKRSSRRQSLELQKCEEILHKIVKYRFSWPFREPVTRDEAEDYYDVITHPMDFQTVQNKCSCGSYRSVQEFLTDMKQVFTNAEVYNCRGSHVLSCMVKTEQCLVALLHKHLPGHPYVRRKRKKFPDRLAEDEGDSEPEAVGQSRGRRQKK
binds: all assays above
